The results in this text go back to patent publication US20190284280A1 (ANAPTYSBIO, published 2019).

Results are given in words; binding and its absence hold for the method and conditions named. Some entries that bind do so weakly or less than the wild type.

In the assay the target is soluble cynomolgus monkey TIM-3 fusion (cynomolgus monkey). Nature of the assay: SPR. For orientation: Surface plasmon resonance follows binding to a sensor surface in real time, without labels.

B1: exemplary anti-TIM-3 antibody (having heavy and light chains as set forth in SEQ ID NOs: 1 & 2, respectively) (antibody, human IgG4 S228P, kappa, V domains shown)
VH: EVQLLESGGGLVQPGGSLRLSCAAASGFTFSSYDMSWVRQAPGKGLDWVSTISGGGTYTYYQDSVKGRFTISRDNSKNTLYLQMNSLRAEDTAVYYCASMDYWGQGTTVTVSS
VL: DIQMTQSPSSLSASVGDRVTITCRASQSIRRYLNWYHQKPGKAPKLLIYGASTLQSGVPSRFSGSGSGTDFTLTISSLQPEDFAVYYCQQSHSAPLTFGGGTKVEIKR
modifications: N-glycosylation at asparagine residue 290 of SEQ ID NO:1
notes: Humanized IgG4 (human IGHG4*01) / kappa (IGKC*01); also called exemplary humanized monoclonal anti-TIM-3 antibody; anti-TIM-3 mAb
Regarding B1, the binding result is given as “binds”.
